Experimental data published in patent publication US8318664B2, “Unacylated ghrelin fragments as therapeutic agent in the treatment of obesity” (Alize Pharma SAS, priority 2007, dated 2012).

Test system: C57BL/6J male mice on high fat diet
Assay: High fat diet (HFD) pre-diabetic/onset obesity model in C57BL/6J mice
Format: in vivo, mouse
Conditions: 4 nmol/kg/hr
Experimental: In order to assess the effects of UAG and cyclic UAG (6-13) on the metabolic responses to a high fat diet, ten (10) week old C57BL/6J male mice were allowed to acclimatize in the animal facility for 1 week. The mice were fed a standard chow (also referred herein as “normal diet” or “ND”, 9% kcal fat) and were maintained in 12 hour:12 hour light:dark conditions at 21° C. (FIG. 17). […]
Body weight and 24 h food intake were measured weekly for 4 weeks and IPGTTs were performed bi-weekly for 4 weeks. […]
GTTs were performed following a 6 h fast starting at 8 am, then ˜100 μl of blood was collected from the tail vein (t=0) for measurement of insulin under fasting conditions (no anesthesia). […] Glucose was then measured using a glucometer using ˜0.5 μl of tail vein blood at t=0, 15, 30, 45, 60 and 120 minutes. […]
The day after the final IPGTT, mice were fasted for 4 h starting at 8 am, then injected with human insulin (Actrapid, Novo Nordisk) at 0.5 IU/kg. Glucose in tail vein blood (˜0.5 μl) was measured with a glucometer at t=0, 15, 30, 45, 60 and 120 minutes (no anesthesia).
Tail vein blood glucose was measured by glucometer biweekly from free-fed mice in the non-IPGTT experimental streams (no anesthesia).

SPEHQRVQ (also: cyclic (positions not given here)) [cyclic UAG (6-13)]
24 h food intake: independent of food consumption

No end group written: not given here.
